Reference: patent US20180094059A1
No constants are given. Whether binding was seen depends on the method and setting. Some results given as binding are weak or reduced against the parent protein; the word gives no strength.

Columns and labels:
DcR1-Fc (human) = target: T1, DcR1-Fc (human) (UniProt O14798); assay: ELISA, coated DcR1-Fc (3 µg/ml), anti-Flag-HRP detection
T1 sequence (looked up): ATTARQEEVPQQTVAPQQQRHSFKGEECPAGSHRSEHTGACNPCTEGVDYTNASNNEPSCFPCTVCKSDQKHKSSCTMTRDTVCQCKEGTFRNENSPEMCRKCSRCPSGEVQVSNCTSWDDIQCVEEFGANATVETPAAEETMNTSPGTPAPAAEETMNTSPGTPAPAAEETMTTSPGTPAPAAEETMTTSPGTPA

OPG-Fc (human) = target: T2, OPG-Fc (human) (UniProt O00300); assay: ELISA, coated OPG-Fc (3 µg/ml), anti-Flag-HRP detection
T2 sequence (looked up): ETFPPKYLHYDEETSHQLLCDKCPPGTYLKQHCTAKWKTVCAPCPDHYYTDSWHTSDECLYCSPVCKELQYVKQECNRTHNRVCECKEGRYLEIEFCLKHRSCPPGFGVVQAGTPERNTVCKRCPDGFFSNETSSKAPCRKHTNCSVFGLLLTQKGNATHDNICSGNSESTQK

binding (DcR1-Fc (human)): binds
binding (OPG-Fc (human)): binds
B1: Db10-Glyco-scTRAIL3-FAVSGAA (protein)
chain: LEASDYKDDDDKGAEVQLVESGGGLVQPGGSLRLSCAASGFSLTNYGVHWVRQAPGKGLEWLGVIWSGGNTDYNTPFTSRFTISRDNSKNTLYLQMNSLRAEDTAVYYCARALTYYDYEFAYWGQGTTVTVSSGGGGSGGGGSDIQLTQSPSFLSASVGDRVTITCRASQSIGTNIHWYQQKPGKAPKLLIKYASESISGVPSRFSGSGSGTEFTLTISSLQPEDFATYYCQQNNNWPTTFGAGTKLEIKRAAAGNGTSNGTSEFGGAAAHITGTRGRSNTLSSPNSKNEKALGRKINSWESSRSGHSFLSNLHLRNGELVIHEKGFYYIYSQTYFRFQEEIKENTKNDKQMVQYIYKYTSYPDPILLMKSARNSCWSKDAEYGLYSIYQGGIFELKENDRIFVSVTNEHLIDMDHEASFFGAFAVSGAAAHITGTRGRSNTLSSPNSKNEKALGRKINSWESSRSGHSFLSNLHLRNGELVIHEKGFYYIYSQTYFRFQEEIKENTKNDKQMVQYIYKYTSYPDPILLMKSARNSCWSKDAEYGLYSIYQGGIFELKENDRIFVSVTNEHLIDMDHEASFFGAFAVSGAAAHITGTRGRSNTLSSPNSKNEKALGRKINSWESSRSGHSFLSNLHLRNGELVIHEKGFYYIYSQTYFRFQEEIKENTKNDKQMVQYIYKYTSYPDPILLMKSARNSCWSKDAEYGLYSIYQGGIFELKENDRIFVSVTNEHLIDMDHEASFFGAFAVS
modifications: glycosylated connecting peptide
